Results on one substance are retold here after publication PMC12541625.

Chains of the proteins cited; added tags and fusions are not shown.
UniProt B2KF05: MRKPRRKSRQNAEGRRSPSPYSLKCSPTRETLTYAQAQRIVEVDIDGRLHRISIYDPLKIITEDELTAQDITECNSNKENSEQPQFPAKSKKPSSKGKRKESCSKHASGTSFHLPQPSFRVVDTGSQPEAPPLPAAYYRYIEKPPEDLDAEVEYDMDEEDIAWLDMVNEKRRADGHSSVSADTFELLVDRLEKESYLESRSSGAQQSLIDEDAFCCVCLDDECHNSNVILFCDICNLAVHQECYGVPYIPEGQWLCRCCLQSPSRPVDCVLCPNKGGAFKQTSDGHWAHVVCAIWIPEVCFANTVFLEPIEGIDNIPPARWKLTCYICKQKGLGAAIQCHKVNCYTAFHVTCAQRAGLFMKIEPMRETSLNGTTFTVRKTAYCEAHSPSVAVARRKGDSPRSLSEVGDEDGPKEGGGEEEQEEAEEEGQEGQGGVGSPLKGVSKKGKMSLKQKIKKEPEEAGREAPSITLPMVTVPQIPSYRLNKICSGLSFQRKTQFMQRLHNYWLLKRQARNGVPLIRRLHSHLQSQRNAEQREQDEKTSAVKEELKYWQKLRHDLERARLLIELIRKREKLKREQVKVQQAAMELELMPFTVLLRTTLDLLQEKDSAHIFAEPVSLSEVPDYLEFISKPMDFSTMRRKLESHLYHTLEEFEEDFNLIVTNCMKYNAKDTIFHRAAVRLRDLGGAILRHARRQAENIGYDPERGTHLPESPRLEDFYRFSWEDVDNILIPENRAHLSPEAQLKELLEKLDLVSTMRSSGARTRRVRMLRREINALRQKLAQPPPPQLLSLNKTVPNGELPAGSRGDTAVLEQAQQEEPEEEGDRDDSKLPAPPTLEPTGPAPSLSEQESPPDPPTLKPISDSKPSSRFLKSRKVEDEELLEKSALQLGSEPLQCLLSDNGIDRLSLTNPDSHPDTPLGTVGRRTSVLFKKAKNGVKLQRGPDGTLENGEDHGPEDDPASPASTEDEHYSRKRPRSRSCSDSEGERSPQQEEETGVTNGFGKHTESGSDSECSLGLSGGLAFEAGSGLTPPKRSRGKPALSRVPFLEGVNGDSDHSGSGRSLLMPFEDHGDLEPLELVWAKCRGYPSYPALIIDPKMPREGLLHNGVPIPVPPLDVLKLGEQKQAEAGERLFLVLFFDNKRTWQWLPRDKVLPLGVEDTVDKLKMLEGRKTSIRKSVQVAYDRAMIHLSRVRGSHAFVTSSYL
UniProt Q5SVQ0: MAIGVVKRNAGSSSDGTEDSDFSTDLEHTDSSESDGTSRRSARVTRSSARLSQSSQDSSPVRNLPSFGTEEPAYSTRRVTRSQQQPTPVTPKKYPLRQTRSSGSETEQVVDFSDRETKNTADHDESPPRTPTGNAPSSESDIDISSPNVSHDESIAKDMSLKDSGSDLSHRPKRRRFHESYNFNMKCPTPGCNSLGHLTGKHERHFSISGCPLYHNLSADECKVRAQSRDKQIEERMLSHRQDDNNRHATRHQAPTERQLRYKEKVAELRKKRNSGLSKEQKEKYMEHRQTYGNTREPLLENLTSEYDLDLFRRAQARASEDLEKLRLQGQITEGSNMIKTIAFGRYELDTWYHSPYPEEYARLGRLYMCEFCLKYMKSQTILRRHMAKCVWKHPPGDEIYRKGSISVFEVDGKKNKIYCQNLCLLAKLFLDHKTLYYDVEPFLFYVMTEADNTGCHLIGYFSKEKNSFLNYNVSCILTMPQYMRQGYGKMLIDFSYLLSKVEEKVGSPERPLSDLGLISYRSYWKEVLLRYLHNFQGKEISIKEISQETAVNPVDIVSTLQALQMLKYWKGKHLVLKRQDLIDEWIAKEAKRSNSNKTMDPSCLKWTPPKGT

Results are given in words; binding and its absence hold for the method and conditions named. Binding seen in cells or lysates may run through a third protein. Some entries that bind do so weakly or less than the wild type.

Experiment [1] addresses BRPF3 (in mouse heart tissue) (mouse (endogenous in heart tissue)) (UniProt B2KF05). As to the kind of experiment: co-IP; Co-IP and WB analysis in mouse heart tissue; antibody and bait not stated.
The target of experiment [2] is Flag-tagged full-length BRPF3 (UniProt B2KF05). As to the kind of experiment: co-IP; CFs lysed in Co-IP lysis buffer with protease inhibitor; capture with flag antibody and Protein A/G magnetic beads at 4 °C overnight; immunoblot; IgG as negative control.

As for “KAT7 (in mouse cardiac fibroblasts and mouse heart tissue) (from UniProt Q5SVQ0 1-613) (enzyme)”, the binding result in experiment [1] and in experiment [2] was “binds” each time.
